Laboratory results published in PubChem BioAssay AID1347076 (National Center for Advancing Translational Sciences (NCATS), 2019).
The whole screen tested about 400,000 compounds, of which about 13,000 (3.2%) were called active. This list was built around the results that the source calls inconclusive (neither active nor inactive); the mix of calls is not that of the screen. The call rests on the fitted dose curve; in most records, active means well fitted cell-killing curve with a large enough effect; inconclusive means small, poorly fitted or top-dose-only effect, or effect the other way; inactive means flat fitted curve, though single readings scatter. Potencies beside an inconclusive call are fits to weak or partial responses and may not hold up. Where a SMILES comes first, the peptide text is derived from it. The star is where a group is joined. Boc = CC(C)(C)OC(=O)*; Bn = c1ccc(C*)cc1

Assay: qHTS assay for MDR1-selective chemotherapeutics: Primary screen using the drug-selected MDR subline cells KB-V1; further: nearly all actives have a fitted effect of over 60% in size
Details: KB-V1 MDR cells viability, CellTiter-Glo, 72 h; activity change, negative = cytotoxicity: at 46.1 µM (top of the series)
Procedure, shortened: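 Cytotoxicity via CellTiter-Glo luminescence after 72 h compound exposure at 37 degrees C. Cells: drug-selected KB-V1 line, DMEM phenol-red free plus 10% FBS. Compounds tested at multiple concentrations; normalized data fitted to concentration-effect curves.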
On the % scale 0 is the no-effect control and ±100 the full control effect; potency means the concentration at half of the fitted maximal effect.

SMILES	Potency	activity change, negative = cytotoxicity
COc1ccc(C(=O)C2CCCN(C(=O)c3csc(SC)n3)C2)cc1F (stereo unspecified)	inconclusive: 23.1 µM [cytotoxic, single point]	–
CCc1sc(Nc2ccc(Cl)cc2)nc1-c1cc2cccc(OC)c2oc1=O	–	inactive: 1.29%
O=C(NNS(=O)(=O)c1ccccc1[N+](=O)[O-])c1ccccc1[N+](=O)[O-]	–	inactive: -4.91%
O=S(=O)(c1cccc(Cn2nnc(-c3ccc(F)cc3)n2)c1)N1CCOCC1	inconclusive: 9.2 µM [cytotoxic, partial curve]	–
CCOc1ccc(NC(=O)C/C(C)=N/NC(=O)Cc2ccc(Cl)cc2)cc1	inconclusive: 7.31 µM [rising, partial curve]	–
COc1ccc(/C=C2\SC(=S)N(CCCC(=O)N3CCOCC3)C2=O)cc1	inconclusive: 13 µM [cytotoxic, partial curve, poor fit]	–
COc1ccccc1CNC(=O)COc1cc(=O)n(C)c2ccccc12	–	inactive: -15.3%
COc1ccc(N(CC(=O)NC2CCCCCC2)S(=O)(=O)c2c(C)nn(C)c2C)cc1	active: 8.2 µM	–
Nc1cc2sc(-c3ccc(C(=O)O)cc3)nc2cc1Cl	inconclusive: 18.4 µM [cytotoxic, single point]	–
O=[N+]([O-])c1cccc(C2Nc3cccc4cccc(c34)N2)c1	inconclusive: 18.4 µM [cytotoxic, single point]	–
CC(=O)c1cccc(NC(=O)CSC(=O)c2ccccc2)c1	inconclusive: 2.06 µM [rising, full curve, poor fit]	–
Cc1ccc(/C(O)=C2\C(=O)C(=O)N(CC(C)O)C2c2ccc(N(C)C)cc2)cc1 (stereo unspecified)	–	inactive: 2.96%
CC(C)(C)c1ccc(C(=O)NCC(c2cccs2)S(=O)(=O)c2ccc(F)cc2)cc1 (stereo unspecified)	inconclusive: 20.6 µM [cytotoxic, partial curve, poor fit]	–
FC(F)(F)c1nc(-c2cccs2)ncc1-c1nnnn1-c1ccc(Cl)cc1	active: 16.4 µM	–
CC(C)CN1C(=O)c2ccc(NC(=O)Cc3ccccc3)cc2C1=O	inconclusive: 0.461 µM [rising, full curve]	–
c1ccc(-c2nc(N3CCOCC3)c3ccccc3n2)nc1	inconclusive: 14.6 µM [cytotoxic, partial curve]	–
CN(C)c1ccnc(SCc2ccccc2Cl)c1C#N	inconclusive: 16.4 µM [cytotoxic, single point]	–
COc1ccc(OC)c(-n2c(SCC(=O)NCC3CCCO3)nc3ccccc3c2=O)c1 (stereo unspecified)	–	inactive: -1.6%
COC(=O)c1sc(S(=O)(=O)N2CCC(C(N)=O)CC2)c(C(=O)OC)c1C	–	inactive: -1.27%
CCCCC(CC)CNC(=O)c1ccc2c(=O)n(CCOC)c(=O)[nH]c2c1 (stereo unspecified)	–	inactive: 0%
COc1ccc(NC(=O)C2CCN(c3cc(C)nc(-c4ccccc4)n3)CC2)cc1	–	inactive: 0%
COCCCNC(=O)c1ccccc1Sc1ccc(NC(C)=O)nc1	inconclusive: 2.31 µM [rising, full curve]	–
O=C(CCC(=O)N1CCc2ccccc21)Nc1ccccc1	inconclusive: 29.1 µM [cytotoxic, single point]	–
CN(C(=O)c1ccc2ccccc2c1)c1ccccn1	–	inactive: -10.1%

SMILES	Potency	activity change, negative = cytotoxicity
O=C(NCC(c1cccnc1)N1CCN(c2ccccc2)CC1)OCc1ccccc1 (stereo unspecified)	active: 2.59 µM	–
CSc1ncccc1C(=O)OCC(=O)C(C)(C)C	inconclusive: 32.6 µM [rising, single point]	–
O=C(COc1cccc2cccnc12)Nc1nccs1	–	inactive: -0.773%
CC(=O)Nc1cc(-c2ccccc2N(C)C)cn2c(-c3ccc(S(C)(=O)=O)cc3)cnc12	–	inactive: -1.08%
CCCCn1c(N)c(N(CC(C)C)C(=O)c2cc(C)oc2C)c(=O)[nH]c1=O	inconclusive: 0.0065 µM [cytotoxic, full curve]	–
O=C(COc1ccc(Br)cc1)N(Cc1nnc(-c2ccccc2Cl)o1)C1CC1	inconclusive: 16.4 µM [cytotoxic, partial curve]	–
C=CCOC(=O)Nc1nc(CCNC(=O)OCc2ccccc2)c(C(=O)O)s1	–	inactive: -2.36%
O=C(C[C@H]1C[C@H](C(=O)N2CCOCC2)[C@@]2(CCC3CCCC3)c3[nH]c4cc(-c5ccco5)ccc4c3CCN2C1=O)NCCCn1ccnc1	–	inactive: -2.55%
Cc1ncc(S(=O)(=O)c2ccc(Cl)cc2)c(-c2ccccc2)n1	–	inactive: -5.79%
COc1ccccc1N1CCN(C(=O)NCc2cccc(C(F)(F)F)c2)CC1	inconclusive: 16.4 µM [cytotoxic, single point]	–
COc1cc(/C=N/n2nnnc2N)cc(Cl)c1OC	inconclusive: 29.1 µM [cytotoxic, single point]	–
COCCNCCOc1ccccc1-c1ccccc1	–	inactive: -14.3%
CCN(CC)S(=O)(=O)c1cccc(NC(=O)c2cncc(Br)c2)c1	–	inactive: -1.79%
CCOc1ccc(-c2[nH]ncc2-c2ccccc2)c(O)c1	–	inactive: 0%
COc1cccc(-n2nc(-c3ccnn3-c3cccc(Cl)c3)c(=O)n(C)c2=O)c1	inconclusive: 3.66 µM [cytotoxic, full curve]	–
CC(C)Sc1nc2c(c(=O)[nH]c(=O)n2C)n1Cc1ccc(Cl)cc1	–	inactive: 0%
CCN(CC)C(=O)COc1ccc(-c2nnc(N3CCCCC3)c3ccccc23)cc1	inconclusive: 9.2 µM [cytotoxic, partial curve, poor fit]	–
Cc1onc(-c2c(F)cccc2Cl)c1C(=O)Nc1nc2ccccc2[nH]1	inconclusive: 20.6 µM [cytotoxic, partial curve, poor fit]	–
COc1ccc(/C(C)=N/N2CCOCC2)c(O)c1	inconclusive: 5.8 µM [rising, full curve, poor fit]	–
Cc1ccc(Nc2nnc(SCC(=O)Nc3cccnc3Cl)s2)cc1C	active: 5.17 µM	–
N#Cc1ccc(Oc2ccc(-c3nc4ccccc4nc3-c3ccccc3)cc2)cc1C#N	active: 20.6 µM	–
CN(C)CCN1C(=O)C(=O)/C(=C(/O)c2ccc(S(=O)(=O)N3CCOCC3)cc2)C1c1ccccc1 (stereo unspecified)	–	inactive: 6.51%
Cc1ccc(S(=O)(=O)N2C[C@@H]3[C@H]4CC[C@H](C4)[C@@H]3[C@@H](C)[C@@H]2c2ccco2)cc1	–	inactive: -0.33%
O=C(CN(Cc1ccccc1F)S(=O)(=O)c1ccc(Cl)cc1)NCCC1=CCCCC1	active: 6.51 µM	–

SMILES	Potency	activity change, negative = cytotoxicity
CCn1c(-c2csc(C(C)C)c2)n[nH]c1=S	active: 20.6 µM	–
CCN(CC)CCNc1nc(C(F)(F)F)nc2c1nnn2Cc1ccccc1	inconclusive: 2.59 µM [cytotoxic, full curve, poor fit]	–
COc1ccc(NC(=S)N/N=C/c2ccc(F)c(F)c2)cc1	inconclusive: 29.1 µM [cytotoxic, single point]	–
COC(=O)CN1C(=S)N(c2ccc(Cl)cc2)C(=O)C1CC(=O)Nc1ccccc1 (stereo unspecified)	inconclusive: 18.4 µM [cytotoxic, single point]	–
CNC(=S)Nc1cc2oc3ccccc3c2cc1OC	–	inactive: 11.4%
Cc1cc(C)c(OCCCn2ccnc2)c(C)c1	–	inactive: 0%
COc1ccc(OCC(=O)Nc2c3c(nn2C(C)(C)C)CSC3)cc1	inconclusive: 20.6 µM [cytotoxic, partial curve]	–
O=C(Nc1cc(F)ccc1F)C1CCCN(c2ncnc3c2nc2n3CCCCC2)C1 (stereo unspecified)	inconclusive: 20.6 µM [cytotoxic, partial curve, poor fit]	–
CCc1nc2c(OCc3cc(Cl)cc(Cl)c3)cccn2c1N(C)C(=O)c1ccc(C)cc1	inconclusive: 29.1 µM [cytotoxic, single point]	–
Cc1oc2ncn(C)c(=O)c2c1C(=O)Nc1ccccn1	inconclusive: 25.9 µM [rising, partial curve, poor fit]	–
O=C(CN1C(=O)COc2ccc(S(=O)(=O)N3CCOCC3)cc21)N1CCN(c2cccc(C(F)(F)F)c2)CC1	inconclusive: 18.4 µM [cytotoxic, partial curve, poor fit]	–
O=C(NCc1ccc(Cl)cc1)C(=O)NCC(c1ccco1)N1CCOCC1 (stereo unspecified)	inconclusive: 29.1 µM [cytotoxic, single point]	–
Cc1ccccc1NC(=S)N(Cc1ccccc1)Cc1cccnc1	inconclusive: 10.3 µM [cytotoxic, partial curve, poor fit]	–
CC(C)(C)c1ccc(C(=O)NCCC(=O)N2CCN(c3ncccn3)CC2)cc1	inconclusive: 20.6 µM [cytotoxic, partial curve, poor fit]	–
CCOc1ccc2ncc(S(=O)(=O)c3ccc(C)cc3)c(N3CCC4(CC3)OCCO4)c2c1	active: 4.11 µM	–
CC(C)CC(NC(=O)C(NC(=O)C(Cc1ccc(OCc2ccccc2)cc1)NC(=O)OC(C)(C)C)C(C)C)C(N)=O (stereo not drawn) (Boc-Tyr(Bn)-Val-Leu-NH2; configuration not given here)	inconclusive: 29.1 µM [rising, partial curve, poor fit]	–
O=S(=O)(NCCc1ccncc1)c1ccc(F)cc1	–	inactive: 8.73%
COc1ccc(-c2csc(NC(=O)C3CC(=O)N(Cc4ccco4)C3)n2)cc1 (stereo unspecified)	inconclusive: 16.4 µM [cytotoxic, single point]	–
O=C(Nc1cccc(S(=O)(=O)NC2=NCCC2)c1)c1ccc(OC(F)F)cc1	inconclusive: 0.517 µM [rising, full curve]	–
O=C(NC1CCCCC1)C1c2ccccc2OCC(=O)N1Cc1ccc2c(c1)OCO2 (stereo unspecified)	inconclusive: 0.651 µM [cytotoxic, full curve]	–
Cc1ccc(-c2cc(-c3ccc4c(c3)NC(=O)CO4)nc3c2COc2ccc(C)cc2-3)cc1	–	inactive: 6.03%
CCN(C(=O)COC(=O)c1ccc(Cl)c(S(=O)(=O)N2CCCCC2)c1)C1CCS(=O)(=O)C1 (stereo unspecified)	–	inconclusive: 35.3%
CC(C)C[C@@H](COCc1cccc(Cl)c1)N1CCN(C(=O)c2ccc(C(F)(F)F)cc2)CCC1=O	inconclusive: 7.31 µM [cytotoxic, single point]	–

Retrieved by compound from the list above (4):
SMILES	Potency	activity change, negative = cytotoxicity
O=C(Nc1cccc(S(=O)(=O)NC2=NCCC2)c1)c1ccc(OC(F)F)cc1	inconclusive: 0.517 µM [rising, full curve]	–
CC(C)(C)c1ccc(C(=O)NCCC(=O)N2CCN(c3ncccn3)CC2)cc1	inconclusive: 20.6 µM [cytotoxic, partial curve, poor fit]	–
CC(C)CC(NC(=O)C(NC(=O)C(Cc1ccc(OCc2ccccc2)cc1)NC(=O)OC(C)(C)C)C(C)C)C(N)=O (stereo not drawn) (Boc-Tyr(Bn)-Val-Leu-NH2; configuration not given here)	inconclusive: 29.1 µM [rising, partial curve, poor fit]	–
Cc1cc(C)c(OCCCn2ccnc2)c(C)c1	–	inactive: 0%
